This note sets out measurements from paper PMC10853725.

Chains of the proteins cited; added tags and fusions are not shown.
UniProt Q8BKJ9: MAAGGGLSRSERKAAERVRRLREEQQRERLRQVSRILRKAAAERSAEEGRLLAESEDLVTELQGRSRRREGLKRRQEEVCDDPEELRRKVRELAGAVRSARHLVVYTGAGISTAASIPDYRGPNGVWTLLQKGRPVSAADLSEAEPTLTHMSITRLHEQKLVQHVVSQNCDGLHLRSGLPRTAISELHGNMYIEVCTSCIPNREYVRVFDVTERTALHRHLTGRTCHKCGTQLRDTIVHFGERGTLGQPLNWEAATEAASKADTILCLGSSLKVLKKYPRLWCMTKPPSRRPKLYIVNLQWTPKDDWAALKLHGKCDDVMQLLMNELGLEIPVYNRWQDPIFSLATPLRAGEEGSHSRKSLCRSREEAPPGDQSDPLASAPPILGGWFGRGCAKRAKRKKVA
UniProt Q61188: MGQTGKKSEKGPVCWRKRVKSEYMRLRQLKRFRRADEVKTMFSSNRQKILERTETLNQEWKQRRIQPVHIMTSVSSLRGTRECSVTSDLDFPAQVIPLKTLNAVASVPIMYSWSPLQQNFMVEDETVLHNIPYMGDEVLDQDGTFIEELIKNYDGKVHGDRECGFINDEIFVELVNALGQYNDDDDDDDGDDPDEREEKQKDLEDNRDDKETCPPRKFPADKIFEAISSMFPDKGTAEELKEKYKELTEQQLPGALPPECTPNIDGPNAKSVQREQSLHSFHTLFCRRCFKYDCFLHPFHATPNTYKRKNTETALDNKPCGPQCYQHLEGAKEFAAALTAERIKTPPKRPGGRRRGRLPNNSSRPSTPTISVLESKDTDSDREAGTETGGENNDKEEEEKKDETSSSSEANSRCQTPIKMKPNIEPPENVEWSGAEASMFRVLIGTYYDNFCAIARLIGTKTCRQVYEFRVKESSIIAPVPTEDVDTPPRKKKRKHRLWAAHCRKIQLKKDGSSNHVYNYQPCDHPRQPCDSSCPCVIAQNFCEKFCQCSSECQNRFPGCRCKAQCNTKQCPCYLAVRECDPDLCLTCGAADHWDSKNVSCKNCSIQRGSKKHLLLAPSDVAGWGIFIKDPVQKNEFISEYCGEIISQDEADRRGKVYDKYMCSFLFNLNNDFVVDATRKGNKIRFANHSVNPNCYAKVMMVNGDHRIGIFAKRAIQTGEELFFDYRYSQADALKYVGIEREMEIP

The target in this assay is T1, FLAG-tagged Engrailed-1 (EN1) (UniProt P09065).
T1 sequence: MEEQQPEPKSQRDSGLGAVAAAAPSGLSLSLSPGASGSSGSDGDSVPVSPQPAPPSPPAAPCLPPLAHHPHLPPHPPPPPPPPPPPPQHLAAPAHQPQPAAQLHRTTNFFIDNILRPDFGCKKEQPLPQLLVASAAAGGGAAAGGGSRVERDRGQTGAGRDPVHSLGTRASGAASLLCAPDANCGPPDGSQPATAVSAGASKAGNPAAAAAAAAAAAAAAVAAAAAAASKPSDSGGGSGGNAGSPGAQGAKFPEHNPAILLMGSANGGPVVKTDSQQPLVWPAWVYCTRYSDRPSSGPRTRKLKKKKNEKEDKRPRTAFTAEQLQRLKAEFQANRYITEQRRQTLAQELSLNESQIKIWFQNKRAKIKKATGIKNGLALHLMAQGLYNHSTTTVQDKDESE
The assay can be described thus: affinity purification with mass spectrometry; nuclear complex co-immunoprecipitation of FLAG-tagged EN1 (Active Motif kit, high stringency buffer), Protein A/G magnetic beads, 5 µg antibody per reaction, LC-MS/MS; mT3-2D and mT19-2D cells overexpressing EN1; hits by log2 fold change >2 against the control, two independent biological samples.

No constants are given. Whether binding was seen depends on the method and setting. In cells and extracts the contact can be indirect. A yes stands for co-enrichment or nearness to the bait. Other partners may have been found. Sequences can lack the tags named with a protein.

As for “ZFP819 (mouse (endogenous in mT3-2D and mT19-2D))”, the binding result is listed as “binds”. Turning to SIRT7 (from UniProt Q8BKJ9 1-402), the binding result is “binds”.

Regarding EZH2 (from UniProt Q61188 1-746), the binding result is “binds”.

B1: ARID4B (protein, UniProt A2CG63 1-1314)
chain: MKALDEPPYLTVGTDVSAKYRGAFCEAKIKTAKRLVKVKVTFRHDSSTVEVQDDHIKGPLKVGAIVEVKNLDGAYQEAVINKLTDASWYTVVFDDGDEKTLRRSSLCLKGERHFAESETLDQLPLTNPEHFGTPVIGKKTNRGRRSNHIPEEESSSSSSDDDEEERKQTDELLGKVVCVDYVSLEKKKAMWFPALVVCPDCSDEIAVKKDNILVRSFKDGKFTSVPRKDVHEITSDTVPKPDAVLKQAFDQALEFHKSRAIPANWKTELKEDSSSSEAEEEEEEEDDEKEKEDNSSEEEEEIEPFPEERENFLQQLYKFMEDRGTPINKRPVLGYRNLNLFKLFRLVHKLGGFDNIESGAVWKQVYQDLGIPVLNSAAGYNVKCAYKKYLYGFEEYCRSANIDFQMALPEKVLNKPCKDCENKEVKVKEESETEIKEVNVEDSKNVMPKEETPAEDESERKENIKPSLGSKKSLLECIPAQSDEEKEAHITKLEENENLEDKDGGRARTEEAFSTEVDGEEEQARSGDETNKEEDEDDEEIEEEEEEDEEEDEDEDDDDNNEEEEFECYPPGMKVQVRYGRGKNQKMYEASIKDSDVEGGEALYLVHYCGWNVRYDEWIKADKIVRPADKNVPKIKHRKKIKNKLDKEKDRDEKYSPKNCKLRRLSKSPFQSNPSPEMVSKLDLADAKNSDTAHIKSIEITSILNGLQASESSAEDSEQEDERCTQDVDNIGKDESKVEHSTHSRNELISKEEQSSPSLLEENKVHTDLVIAKTVSKSPERLRKDMEAISEDTDFEEEDEITKKRKDVKKDTTDKALKPQTKRGKRRYCSADECLQTGSPGKKEDRTKSKEPLCTENSSNSSSDEDEEEKSKAKMTPTKKYNGLEEKRKSLRTTSFYSGFSEVAEKRIKLLNNSDERLQNNRAKDRKDVWSSIQGQWPKKTLKELFSDSDTEAAASPPHPAPDEGAVEESLQTVAEEESCSPIMELEKPLPASVDNKPIEEKPLEVSDRKTEFPSSGSNSVLNTPPTTPESPSSVTITEASQQQSSVTVSVPLPPNQEEVRSIKSETDSTIEVDSVVGELQDLQSEGNSSPAGFDASVSSSSSNQPEPDNPEKACTGQKRVKDTQGVGSSSKKQKRSHKATVVNNKKKGKGTNSSDSEELSAGESVTKTQTIKSVPTGMKTHNSKSPARVQSPGKGGRNGDKDPDLKEPSNRLPKVYKWSFQTSDLENMTSAERISILQEKLQEIRKHYLSLKSEVASIDRRRKRLKKKERESAATSSSSSSPSSSSITAAVMLTLAEPSMSSASQNGMSVECR
With B1, the binding entry was “binds”.

B2: MED9 (protein, UniProt Q8VCS6 1-142)
chain: MASSGVAGGRQAEDTLQPPPELLPESKPPPPPQPLPVAALPPPAAPRPQSPAGAKEENYSFLPLVHNVIKCMDKDSPDLHQDLNALKTKFQELRKLIGTMPGIHVSPEQQQQQLHSLREQVRTKNELLQKYKSLCMFEIPKD
With B2, the binding entry is on record as “binds”.

B3: MCPH1 (protein, UniProt Q7TT79 1-822)
chain: MEASGGVGGAFLKDVVAYVEVWSSKGTENYSRTFAKQLEDMGATVSKTLNKQVTHVIFKDGYQSTWDKAQKTGAKLVSVLWVEKCRMAGALVDESLFPAVNTDEHLPNLSRKKHKCMQPKDFILKTPENDKRLQKKFEKMAEELQRQKAALDDDVPVLLFESPRSLVYSSPVNVMKRRLQDMKEKRENLSPTSSQMLEQSQQNPCVSLFETSLNISHQPLSSDESFASGSHSSFGDSCGDQERKLGRSANEMTTVTCPSSPVLRASSFYGSASPNHLRQPRPQKAPDSPSKESINCQKDATGAVADSERKQAAGVSQGVPDEKLCLSPTMSIIEEHQVRLGPKNSSAKRKRAADLGSSPKGKLKKRYKRKSALAIQLFKSDQSPPSTIRLIPGTPDVEASSYEDYFSPDNLKERNSERLPPEAQQLASPSLFHCRGLSKWERRNMLEMCDFTCIGEKHRSISSISDLISKSASSLEKPVKEEVNTASTCLLLVETSANDSPGLCSQPGPQLRDDTGPEGSSHPDTLSSSAHHITPLKGNSTETRDPGDGKGSPKEGSTPPASASPEDEVHICNLSLGEDCNVEKSVEEKENIATGYSESVKNGPGRPDPSDSSCTGLVRPQQKPKKSEKEEKPTRTLVMTSMPSEKQTLIIQVVSTLKGFSFAPEVCETTTHVLVGKSARTLNVLMGIARGCWILSYEWVLLSLELGHWISEEPFELSETFPAAPICRLERHLSTQQYQGTLFANQPKMFIAPASSPPRAKLCELVLLCGGQVSPAPQLASLIIGPYKGKKKARIQYLSEKWVLDSITQHKICDFNNYQLLQ
With B3, the binding entry is “binds”.
